Reference: patent publication US11634443B2, “Treprostinil prodrugs” (United Therapeutics Corporation, priority 2019, dated 2023)
Several values for one entry are separate records, joined by “and”; a condition that tells them apart may be missing. Equal entries are not always repeated. Where two headings read alike, the source gives them in different places. At least one structure is not confirmed: it was looked up by name or label, or the drawing left a doubt.

Conditions: treprostinil in plasma, male rats
[1] = single IV bolus 1 mg/kg prodrug

Structure (SMILES) | Individual peak treprostinil plasma concentrations observed by (Tmax) [1] | Individual peak treprostinil plasma concentrations observed by (Tmax) (single PO 1 mg/kg prodrug, 1 mg/kg) | Individual peak treprostinil plasma concentrations observed by (Tmax) (single PO 10 mg/kg prodrug, 10 mg/kg) | Individual peak treprostinil plasma concentrations observed by (Tmax) (single PO 50 mg/kg prodrug) | Individual peak treprostinil plasma concentrations observed by (Tmax) (single PO 1 mg/kg prodrug) | Individual peak treprostinil plasma concentrations observed by (Tmax) (single PO 10 mg/kg prodrug) | Individual peak treprostinil plasma concentrations observed by (Tmax) (single PO 50 mg/kg prodrug, 50 mg/kg)
CCCCC[C@@H](CC[C@@H]1[C@H]2Cc3cccc(OCC(=O)O)c3C[C@H]2C[C@H]1O)OC(=O)OC(C)C [Prodrug XVII, treprostinil side chain isopropyl carbonate] | 0.083 or 0.5 hours | 0.5 or 2 hours and 1, 2 or 4 hours | 0.5 or 24 hours and 1 or 2 hours | 0.5 or 8 hours |  |  | 
CCCCC[C@@H](CC[C@@H]1[C@H]2Cc3cccc(OCC(=O)O)c3C[C@H]2C[C@H]1O)OC(=O)OCC [Prodrug XVI, treprostinil side chain ethyl carbonate] | 0.083 or 0.5 hours |  |  |  | 0.5 or 4 hours | 0.5, 1, or 4 hours | 0.5 or 1 hours and 0.5 or 8 hours
